# Test results: the supplement of paper PMC12819154, “High-throughput peptide-centric local stability assay extends protein–ligand identification to membrane proteins, tissues and bacteria” (Nature Structural & Molecular Biology, 2025)
# Sequences of proteins named here, by UniProt entry; tags and fusion partners are left off. A change or cut given only in a name is not applied to a line headed by its entry.
# UniProt P77689: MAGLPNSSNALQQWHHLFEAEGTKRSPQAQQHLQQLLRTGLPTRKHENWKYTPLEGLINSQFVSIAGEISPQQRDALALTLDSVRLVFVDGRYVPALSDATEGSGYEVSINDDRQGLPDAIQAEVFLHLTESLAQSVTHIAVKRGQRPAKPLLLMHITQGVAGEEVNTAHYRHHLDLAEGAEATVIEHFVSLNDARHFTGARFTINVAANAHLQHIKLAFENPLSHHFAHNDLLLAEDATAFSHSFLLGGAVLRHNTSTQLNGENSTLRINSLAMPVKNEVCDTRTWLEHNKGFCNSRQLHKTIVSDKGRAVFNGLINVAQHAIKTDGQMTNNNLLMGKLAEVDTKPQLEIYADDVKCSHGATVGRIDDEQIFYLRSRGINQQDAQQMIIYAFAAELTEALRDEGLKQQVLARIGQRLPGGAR
# UniProt P77791: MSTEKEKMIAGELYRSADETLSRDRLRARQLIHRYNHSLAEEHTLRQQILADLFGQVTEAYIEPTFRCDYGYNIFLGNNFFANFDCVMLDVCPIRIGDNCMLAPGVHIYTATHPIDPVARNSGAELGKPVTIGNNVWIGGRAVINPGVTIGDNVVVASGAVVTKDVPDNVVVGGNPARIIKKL
# UniProt Q47083: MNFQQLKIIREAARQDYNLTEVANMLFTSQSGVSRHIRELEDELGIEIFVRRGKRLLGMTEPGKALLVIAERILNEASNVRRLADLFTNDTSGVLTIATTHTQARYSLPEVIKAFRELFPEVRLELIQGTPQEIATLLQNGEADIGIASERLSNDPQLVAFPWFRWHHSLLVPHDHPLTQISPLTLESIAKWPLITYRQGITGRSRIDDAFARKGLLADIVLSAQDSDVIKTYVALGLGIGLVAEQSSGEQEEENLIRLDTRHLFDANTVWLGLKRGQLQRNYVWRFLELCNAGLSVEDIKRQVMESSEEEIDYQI
# UniProt Q47013: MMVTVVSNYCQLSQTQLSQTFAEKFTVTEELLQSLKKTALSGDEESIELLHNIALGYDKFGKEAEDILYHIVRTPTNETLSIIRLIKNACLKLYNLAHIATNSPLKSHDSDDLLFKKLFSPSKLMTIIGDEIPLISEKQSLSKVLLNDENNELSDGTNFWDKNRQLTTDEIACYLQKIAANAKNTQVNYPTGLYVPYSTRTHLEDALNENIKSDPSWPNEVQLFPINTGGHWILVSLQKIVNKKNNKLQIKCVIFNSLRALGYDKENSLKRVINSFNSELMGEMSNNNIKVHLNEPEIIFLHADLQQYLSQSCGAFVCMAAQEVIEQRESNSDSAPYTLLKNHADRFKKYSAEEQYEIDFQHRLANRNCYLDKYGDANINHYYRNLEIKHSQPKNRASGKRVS
# UniProt Q47158: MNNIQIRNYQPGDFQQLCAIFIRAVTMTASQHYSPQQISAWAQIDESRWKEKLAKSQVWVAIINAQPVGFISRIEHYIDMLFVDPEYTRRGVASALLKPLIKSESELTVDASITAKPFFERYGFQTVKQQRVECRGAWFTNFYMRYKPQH
# UniProt Q47147: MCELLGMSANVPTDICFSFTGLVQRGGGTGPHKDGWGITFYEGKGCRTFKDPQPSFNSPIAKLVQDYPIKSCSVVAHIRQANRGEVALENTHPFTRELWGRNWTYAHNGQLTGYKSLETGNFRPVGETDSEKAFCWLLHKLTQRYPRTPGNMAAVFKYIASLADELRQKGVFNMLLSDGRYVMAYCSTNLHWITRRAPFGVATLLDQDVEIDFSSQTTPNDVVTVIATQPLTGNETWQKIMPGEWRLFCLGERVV
# UniProt P77774, whole entry: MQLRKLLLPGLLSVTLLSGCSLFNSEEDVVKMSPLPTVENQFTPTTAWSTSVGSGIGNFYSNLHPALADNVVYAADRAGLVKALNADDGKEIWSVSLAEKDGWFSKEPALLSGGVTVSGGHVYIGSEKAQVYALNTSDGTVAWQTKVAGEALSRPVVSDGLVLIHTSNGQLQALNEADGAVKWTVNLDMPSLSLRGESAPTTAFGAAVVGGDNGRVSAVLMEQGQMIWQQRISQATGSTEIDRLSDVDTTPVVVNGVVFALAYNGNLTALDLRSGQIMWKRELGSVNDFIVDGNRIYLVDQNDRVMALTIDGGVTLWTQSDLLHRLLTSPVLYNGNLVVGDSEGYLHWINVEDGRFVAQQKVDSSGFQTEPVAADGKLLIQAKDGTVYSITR
# UniProt Q47702: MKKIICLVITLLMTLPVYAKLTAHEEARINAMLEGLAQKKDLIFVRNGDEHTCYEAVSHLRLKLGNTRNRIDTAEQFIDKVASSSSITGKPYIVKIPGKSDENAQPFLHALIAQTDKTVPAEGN
# UniProt P77739: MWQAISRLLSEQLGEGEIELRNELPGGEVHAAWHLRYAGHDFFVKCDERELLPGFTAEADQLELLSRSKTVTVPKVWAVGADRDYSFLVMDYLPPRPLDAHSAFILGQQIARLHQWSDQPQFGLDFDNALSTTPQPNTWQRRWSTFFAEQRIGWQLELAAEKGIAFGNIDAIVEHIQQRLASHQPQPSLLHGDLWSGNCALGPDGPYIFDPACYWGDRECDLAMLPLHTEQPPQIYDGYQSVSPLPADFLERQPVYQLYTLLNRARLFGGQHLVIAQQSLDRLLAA
# UniProt Q46857: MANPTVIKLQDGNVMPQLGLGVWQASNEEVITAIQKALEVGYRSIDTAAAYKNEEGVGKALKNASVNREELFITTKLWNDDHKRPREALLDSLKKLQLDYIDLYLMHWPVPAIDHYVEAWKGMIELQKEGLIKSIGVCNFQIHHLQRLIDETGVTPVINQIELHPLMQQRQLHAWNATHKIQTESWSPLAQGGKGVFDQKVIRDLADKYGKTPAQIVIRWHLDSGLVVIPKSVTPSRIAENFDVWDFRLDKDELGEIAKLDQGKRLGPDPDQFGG
# UniProt Q46800: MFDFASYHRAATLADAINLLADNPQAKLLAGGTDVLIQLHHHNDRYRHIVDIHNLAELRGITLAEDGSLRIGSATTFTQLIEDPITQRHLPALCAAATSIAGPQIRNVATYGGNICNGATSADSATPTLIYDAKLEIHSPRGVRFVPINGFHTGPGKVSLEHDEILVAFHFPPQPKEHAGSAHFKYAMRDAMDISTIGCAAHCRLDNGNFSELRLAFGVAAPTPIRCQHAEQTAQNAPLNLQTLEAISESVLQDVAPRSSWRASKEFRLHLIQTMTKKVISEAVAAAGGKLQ
# UniProt Q2M7M3: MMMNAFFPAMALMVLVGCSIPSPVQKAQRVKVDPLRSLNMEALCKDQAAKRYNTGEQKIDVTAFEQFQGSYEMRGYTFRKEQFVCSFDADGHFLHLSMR
# UniProt Q46808: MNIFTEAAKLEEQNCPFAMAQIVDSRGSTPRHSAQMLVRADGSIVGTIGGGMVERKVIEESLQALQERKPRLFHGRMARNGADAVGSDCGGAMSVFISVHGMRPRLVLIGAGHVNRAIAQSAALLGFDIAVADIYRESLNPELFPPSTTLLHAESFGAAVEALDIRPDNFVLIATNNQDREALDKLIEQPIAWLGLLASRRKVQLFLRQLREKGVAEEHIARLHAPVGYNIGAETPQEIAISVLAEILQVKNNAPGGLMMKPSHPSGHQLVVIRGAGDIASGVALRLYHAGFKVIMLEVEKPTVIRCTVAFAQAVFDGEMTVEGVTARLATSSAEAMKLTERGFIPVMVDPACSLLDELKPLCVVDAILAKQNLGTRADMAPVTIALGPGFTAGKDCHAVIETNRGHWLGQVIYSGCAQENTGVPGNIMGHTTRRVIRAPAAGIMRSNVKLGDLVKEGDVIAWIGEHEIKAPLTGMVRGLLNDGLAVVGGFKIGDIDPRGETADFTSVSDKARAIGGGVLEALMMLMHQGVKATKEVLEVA
# UniProt P77726: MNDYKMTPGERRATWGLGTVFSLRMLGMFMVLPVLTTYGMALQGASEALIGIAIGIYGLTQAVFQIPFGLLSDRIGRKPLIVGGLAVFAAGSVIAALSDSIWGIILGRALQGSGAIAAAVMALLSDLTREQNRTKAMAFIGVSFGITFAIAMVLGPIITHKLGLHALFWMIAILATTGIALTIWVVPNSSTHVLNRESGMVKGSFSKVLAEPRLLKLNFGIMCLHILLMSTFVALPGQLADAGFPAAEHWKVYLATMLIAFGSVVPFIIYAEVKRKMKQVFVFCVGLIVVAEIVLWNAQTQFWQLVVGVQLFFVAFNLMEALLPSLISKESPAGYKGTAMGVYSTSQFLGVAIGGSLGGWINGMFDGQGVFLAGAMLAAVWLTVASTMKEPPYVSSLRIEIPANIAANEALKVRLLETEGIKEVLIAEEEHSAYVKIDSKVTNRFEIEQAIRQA
# UniProt Q46798: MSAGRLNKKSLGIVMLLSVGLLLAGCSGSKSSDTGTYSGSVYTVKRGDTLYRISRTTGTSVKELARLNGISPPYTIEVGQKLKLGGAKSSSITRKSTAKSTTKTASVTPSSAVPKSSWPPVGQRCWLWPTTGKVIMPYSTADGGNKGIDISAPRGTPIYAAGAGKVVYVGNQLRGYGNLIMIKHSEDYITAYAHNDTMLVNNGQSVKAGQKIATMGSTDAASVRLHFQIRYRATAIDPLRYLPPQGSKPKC
# UniProt Q57083: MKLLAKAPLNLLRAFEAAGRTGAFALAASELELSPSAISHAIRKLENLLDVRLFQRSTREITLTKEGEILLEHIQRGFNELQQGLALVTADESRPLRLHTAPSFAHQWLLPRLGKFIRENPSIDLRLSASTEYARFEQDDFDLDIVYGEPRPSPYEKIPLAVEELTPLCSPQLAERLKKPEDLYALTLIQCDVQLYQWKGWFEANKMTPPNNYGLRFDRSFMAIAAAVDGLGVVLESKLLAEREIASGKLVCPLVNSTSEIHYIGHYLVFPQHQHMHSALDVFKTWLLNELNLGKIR
# UniProt Q46897: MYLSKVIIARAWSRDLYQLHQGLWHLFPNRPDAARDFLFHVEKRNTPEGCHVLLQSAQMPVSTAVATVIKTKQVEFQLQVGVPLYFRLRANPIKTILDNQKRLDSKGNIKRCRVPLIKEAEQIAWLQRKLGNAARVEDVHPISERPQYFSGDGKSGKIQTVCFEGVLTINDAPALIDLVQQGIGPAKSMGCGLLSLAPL
# UniProt P80644: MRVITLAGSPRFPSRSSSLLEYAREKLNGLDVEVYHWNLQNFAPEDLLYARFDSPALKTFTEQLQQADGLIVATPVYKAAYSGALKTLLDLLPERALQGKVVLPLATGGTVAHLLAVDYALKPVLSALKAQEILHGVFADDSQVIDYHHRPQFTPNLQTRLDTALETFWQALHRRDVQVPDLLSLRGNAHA
# UniProt Q46906: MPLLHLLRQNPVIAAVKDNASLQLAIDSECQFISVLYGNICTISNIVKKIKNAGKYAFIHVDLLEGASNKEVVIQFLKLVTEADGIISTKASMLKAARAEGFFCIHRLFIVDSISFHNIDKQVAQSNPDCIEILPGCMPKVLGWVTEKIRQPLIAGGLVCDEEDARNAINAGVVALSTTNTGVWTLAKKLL
# UniProt P77804: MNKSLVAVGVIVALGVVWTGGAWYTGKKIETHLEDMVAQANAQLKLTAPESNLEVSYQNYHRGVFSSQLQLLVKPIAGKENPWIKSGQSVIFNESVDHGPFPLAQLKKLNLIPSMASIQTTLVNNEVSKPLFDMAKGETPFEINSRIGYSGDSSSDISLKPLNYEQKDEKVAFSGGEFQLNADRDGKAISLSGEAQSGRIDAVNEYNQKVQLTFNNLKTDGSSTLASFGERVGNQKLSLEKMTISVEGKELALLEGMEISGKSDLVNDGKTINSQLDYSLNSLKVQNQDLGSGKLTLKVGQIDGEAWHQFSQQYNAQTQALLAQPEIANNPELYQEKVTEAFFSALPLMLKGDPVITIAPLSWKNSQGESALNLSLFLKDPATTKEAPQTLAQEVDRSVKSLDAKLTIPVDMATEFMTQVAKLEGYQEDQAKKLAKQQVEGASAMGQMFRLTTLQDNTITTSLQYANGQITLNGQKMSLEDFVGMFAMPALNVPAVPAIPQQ
# UniProt Q46851: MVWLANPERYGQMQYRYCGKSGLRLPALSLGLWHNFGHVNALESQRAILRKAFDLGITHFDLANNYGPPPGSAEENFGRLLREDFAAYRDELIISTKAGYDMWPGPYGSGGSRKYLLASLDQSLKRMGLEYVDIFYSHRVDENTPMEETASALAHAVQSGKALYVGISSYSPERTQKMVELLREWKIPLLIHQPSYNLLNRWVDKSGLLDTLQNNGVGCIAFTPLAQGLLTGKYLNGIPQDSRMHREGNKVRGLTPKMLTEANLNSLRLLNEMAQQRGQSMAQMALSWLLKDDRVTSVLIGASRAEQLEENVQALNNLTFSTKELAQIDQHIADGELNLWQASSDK
# UniProt Q46919: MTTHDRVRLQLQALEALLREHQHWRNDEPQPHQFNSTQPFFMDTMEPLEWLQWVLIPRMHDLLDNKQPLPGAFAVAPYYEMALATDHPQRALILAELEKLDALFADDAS
# UniProt P77766: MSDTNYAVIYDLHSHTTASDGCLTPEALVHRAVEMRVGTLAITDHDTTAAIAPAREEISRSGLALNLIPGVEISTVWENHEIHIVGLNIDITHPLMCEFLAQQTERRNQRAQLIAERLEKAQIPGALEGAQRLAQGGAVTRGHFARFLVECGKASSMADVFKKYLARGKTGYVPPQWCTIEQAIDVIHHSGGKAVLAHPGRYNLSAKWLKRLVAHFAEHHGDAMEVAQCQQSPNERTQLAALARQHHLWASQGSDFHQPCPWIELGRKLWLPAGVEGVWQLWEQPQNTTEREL
# The other results are listed elsewhere or left out. Most entries show no effect beyond the scatter of the controls.
# Compound: CC1(C)S[C@@H]2[C@H](NC(=O)[C@H](N)c3ccccc3)C(=O)N2[C@H]1C(=O)O [ampicillin]
# Test: log2 fold change of tryptic peptide abundance, ligand vs vehicle (limited proteolysis) (log2 ratio); higher = more trypsin-susceptible (destabilized)
# Conditions: ligand concentration: 10 uM; sample: E. coli crude lysate
target,measurement,value
"UniProt P77689 (peptide sequence: INSLAMPVKNEVCDTR, peptide start residue: 270)",log2 fold change,-0.149
"UniProt P77791 (peptide sequence: MIAGELYR, peptide start residue: 8)",log2 fold change,-0.166
"UniProt Q47083 (peptide sequence: ALLVIAER, peptide start residue: 65)",log2 fold change,-0.171
"UniProt Q47013 (peptide sequence: SHDSDDLLFKK, peptide start residue: 107)",log2 fold change,-0.495
"UniProt Q47158 (peptide sequence: GAWFTNFYMR, peptide start residue: 136)",log2 fold change,-0.274
"UniProt Q47147 (peptide sequence: GGGTGPHKDGWGITFYEGK, peptide start residue: 26)",log2 fold change,-0.179
"UniProt P77774 (peptide sequence: RELGSVNDFIVDGNR, peptide start residue: 281)",log2 fold change,-0.995
"UniProt Q47702 (peptide sequence: NGDEHTCYEAVSHLR, peptide start residue: 47)",log2 fold change,0.0542
"UniProt Q47146 (peptide sequence: SVALATGAYAHIR, peptide start residue: 388)",log2 fold change,0.744
"UniProt P77739 (peptide sequence: YAGHDFFVK, peptide start residue: 37)",log2 fold change,0.537
"UniProt Q46857 (peptide sequence: QLHAWNATHK, peptide start residue: 171)",log2 fold change,-0.21
"UniProt Q46814 (peptide sequence: GEHMIINFPIGSRPR, peptide start residue: 340)",log2 fold change,0.401
"UniProt Q46908 (peptide sequence: RGATLIDGQTVAEK, peptide start residue: 231)",log2 fold change,0.228
"UniProt Q46800 (peptide sequence: DAMDISTIGCAAHCR, peptide start residue: 190)",log2 fold change,-0.457
"UniProt Q2M7M3 (peptide sequence: SLNMEALCKDQAAKR, peptide start residue: 37)",log2 fold change,0.188
"UniProt Q46808 (peptide sequence: ADGSIVGTIGGGMVERK, peptide start residue: 40)",log2 fold change,-0.286
"UniProt P77726 (peptide sequence: EVLIAEEEHSAYVK, peptide start residue: 423)",log2 fold change,0.255
"UniProt Q46798 (peptide sequence: RGDTLYR, peptide start residue: 46)",log2 fold change,0.23
"UniProt Q06067 (peptide sequence: IFDPFFTTK, peptide start residue: 552)",log2 fold change,-0.127
"UniProt P77721 (peptide sequence: YHVDIMVMSCK, peptide start residue: 164)",log2 fold change,-0.532
"UniProt Q47152 (peptide sequence: HHVDYIYINPVK, peptide start residue: 111)",log2 fold change,0.186
"UniProt Q57083 (peptide sequence: EGEILLEHIQR, peptide start residue: 66)",log2 fold change,0.116
"UniProt Q46897 (peptide sequence: DFLFHVEK, peptide start residue: 36)",log2 fold change,0.271
"UniProt P77802 (peptide sequence: QLLLQLVVKR, peptide start residue: 138)",log2 fold change,0.0761
"UniProt P80644 (peptide sequence: VITLAGSPR, peptide start residue: 3)",log2 fold change,0.158
"UniProt Q46906 (peptide sequence: LVTEADGIISTK, peptide start residue: 79)",log2 fold change,-0.146
"UniProt Q47129 (peptide sequence: YTGVLDTHFAK, peptide start residue: 32)",log2 fold change,-0.227
"UniProt P77804 (peptide sequence: LEGYQEDQAKK, peptide start residue: 423)",log2 fold change,-0.289
"UniProt Q46851 (peptide sequence: KYLLASLDQSLKR, peptide start residue: 114)",log2 fold change,0.376
"UniProt Q46919 (peptide sequence: MHDLLDNK, peptide start residue: 59)",log2 fold change,0.459
"UniProt P77766 (peptide sequence: AQIPGALEGAQR, peptide start residue: 121)",log2 fold change,-0.242

# Retrieved one by one from the list above, 2 records:
target,measurement,value
"UniProt Q47129 (peptide sequence: YTGVLDTHFAK, peptide start residue: 32)",log2 fold change,-0.227
"UniProt Q47702 (peptide sequence: NGDEHTCYEAVSHLR, peptide start residue: 47)",log2 fold change,0.0542
